According to publication PMC8396604:
These are yes or no findings as the source states them, for the method shown. Binding seen in cells or lysates may run through a third protein. A yes stands for co-enrichment or nearness to the bait. Other partners may have been found.

By UniProt entry, the sequences of proteins in these tests, tags left out.
UniProt P80206: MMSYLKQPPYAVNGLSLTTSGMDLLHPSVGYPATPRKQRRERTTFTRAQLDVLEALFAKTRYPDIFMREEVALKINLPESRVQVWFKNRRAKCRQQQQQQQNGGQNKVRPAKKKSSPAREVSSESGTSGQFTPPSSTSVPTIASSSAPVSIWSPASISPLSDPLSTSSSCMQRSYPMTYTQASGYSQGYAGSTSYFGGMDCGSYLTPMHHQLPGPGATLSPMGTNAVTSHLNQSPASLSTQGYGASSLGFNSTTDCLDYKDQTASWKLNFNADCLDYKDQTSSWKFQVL

B1: FIG4 (protein, UniProt Q91WF7 1-907)
chain: MPTAAAPIISSVQKLVLYETRARYFLVGSNHAETKYRVLKIDRTEPKDLVVIDDRHVYTQQEVRELLGRLDLGNRTKMSQKGSSGLFRAVSAFGVVGFVRFLEGYYIVLITKRRKMADIGGHAIYKIEDTSMIYIPNDSVRISHPDEARYLRIFQNVDLSSNFYFSYSYDLSHSLQYNLTVLRMPLEMLKSETSKACQESFDIFEDEGLITQGGSGVFGISSEPYMKYVWNGELLDIIKNTVHRDWLLYIIHGFCGQSKLLIYGRPVYVTLIARRSSRFAGTRFLKRGANCEGDVANEVETEQILCDASVMSFTAGSYSSYVQVRGSVPLFWSQDISTMMPKPPITLDQADPFAHVAALHFDQMLQRFGSPIIILNLVKEREKRKHERILSEELVAAVTYLNQFLPPEHTIVYIPWDMAKYTKSKLCNVLDRLNVIAESVVKKTGFFVNRPDSYCSILRPDEKWNELGGHVIPTGRLQTGILRTNCVDCLDRTNTAQFMVGKCALAYQLYSLGLIDKPNLQFDTDAVRLFEELYEDHGDTLSLQYGGSQLVHRVKTYRKIAPWTQHSKDIMQTLSRYYSNAFSDADRQDSINLFLGVFHPTEGKPHLWELPTDFYLHHKNTMSLLPPRRSYTYWWTPEVVKHLPLPYDEVICAANLKKLMVKKFHRWEEEIDIHNEFFRPYELSSFDDTFCLAMTSSARDFMPKTVGIDPSPFTVRKPDETGKSVLGNKNTREEAVLQRKTAASAPPPPSEEAVSSSSEDDSGTDREDEGSISQRSTPVKMTDTGDSAKATENVVQPMKEVYGVSLSSSLSEEDHSIYARFVQLGQSQHKQDRGNQQLCSRCSDGVIKLTPISAFSQDNIYEVQPPRVDRKSTEIFQAHIQASQGIMQPLGKEDTAMYREYIRNRYL
B2: ACOT11 (protein, UniProt Q8VHQ9 21-594)
chain: TSRKSISHPESGDPPTMAEGEGYRNPTEVQMSQLVLPCHTNHRGELSIGQLLKWIDTTACLSAERHAGCPCVTASMDDIYFDHTISVGQVVNIKAKVNRAFNSSMEVGIQVVSEDLCSEKQWSVCKALATFVAHRELSKVKLKQVIPLTEEEKTEHGVAAERRRMRLVYADTIKDLLTHCVIQDDLDKDCSNMVPAEKTRVESVELVLPPHANHQGNTFGGQIMAWMENVATIAASRLCHAHPTLKAIEMFHFRGPSQVGDRLVLKAIVNNAFKHSMEVGVCVEAYRQEAETQRRHINSAFMTFVVLDKDDQPQKLPWIRPQPGEGERRYREASARKKIRLDRKYLVSCKQAEVALSVPWDPSNQVYLSYYNVSSLKTLMAKDNWVLSVEISEVRLYILEEDFLSFHLEMVVNVDAAQVFQLLSDLRRRPEWDKHYRSVELVQQVDEDDAIYHVISPALSGNTKPQDFVILASRRKPCDNGDPYVIALRSVTLPTHHETPEYQRGETLCSGFCLWREGDQMTKVSYYNQATPGFLNYVTTNVSGLSSEFYNTFKACESFLLDNRNDLAPSLQTL
B3: VAC14 (protein, UniProt Q80WQ2 1-782)
chain: MNPEKDFAPLTPNIVRALNDKLYEKRKVAALEIEKLVRDFVAQNNTMQIKHVIQTLSQEFALSQHPHSRKGGLIGLAACSIALGKDSGLYLKELIEPVLTCFNDADSRLRYYACEALYNIVKVARGAVLPHFNVLFDGLSKLAADPDPNVKSGSELLDRLLKDIVTESSKFDLVSFIPLLRERIYSNNQYARQFIISWILVLVSVPDINLLDYLPEILDGLFQILGDNGKEIRKMCEVVLGEFLKEIKKNPSSVKFAEMANILVIHCQTTDDLIQLTAMCWMREFIQLAGRVMLPYSSGILTAVLPCLAYDDRKKSIKEVANVCNQSLMKLVTPEDDEPDEPKSVAQKQTEPNPEDSLPKQEGTASGGPGSCDSSFGSGINVFTSANTDRAPVTLHLDGIVQVLNCHLSDTTIGMMTRIAVLKWLYHLYIKTPRKMFRHTDSLFPILLQTLSDESDEVVLKDLEVLAEIASSPAGQTDDPGAPDGPDLRVNHSELQVPTSGRANLLNPPSTKGLEGSPSTPTMNSYFYKFMINLLQTFSSERKLLEARGPFIIRQLCLLLNAENIFHSMADILLREEDLKFASTMVHTLNTILLTSTELFQLRNQLKDLQTPESQNLFCCLYRSWCHNPVTTVSLCFLTQNYRHAYDLIQKFGDLEVTVDFLTEVDKLVQLIECPIFTYLRLQLLDVKNNPYLIKALYGLLMLLPQSSAFQLLSHRLQCVPNPELLQTEDCLKAAPKSQKGDSPSIDYTELLQHFEKVQKQHLEVRHQRSGRGDHLDRRVIL

target: OTX2 homeoprotein (mouse (endogenous in adult mouse brain tissue)) (UniProt P80206); assay: affinity purification with mass spectrometry; anti-OTX2 (ab21990) coupled to magnetic beads, lysate of pooled LV and 4V choroid plexus from four 3-month-old mice; 100 mM Tris pH 7.5, 1 mM EDTA, 100 mM NaCl, 1% NP40, 1 mM MgCl2, benzonase; 4 °C overnight; IgG co-IP as control; nano-LC-MS/MS; N = 3

binding, binds:
B1, B2, B3

target: OTX2 homeoprotein (mouse (endogenous in adult mouse brain tissue)) (UniProt P80206); assay: affinity purification with mass spectrometry; anti-OTX2 (ab21990) coupled to magnetic beads, lysates of SVZ, RMS and visual cortex pooled from ten 3-month-old wildtype mice; 20 mM Tris pH 8, 120 mM NaCl, 1% NP40, 1 mM MgCl2, 5% glycerol, benzonase; IgG co-IP as control; nano-LC-MS/MS; N = 1; hits common to the three structures

binding, binds:
B1, B2, B3
